These are yes or no findings as the source states them, for the method shown.
Key:
Assay in all cases: SEC-MALS; 5 mg ml^-1 of each protein injected into a Superdex 200 10/30 Increase column; MALS and refractive index; both purified
[1] = biological target: KIF20A 1–565 (full-length functional motor domain) (mouse) (UniProt P97329)
[2] = biological target: KIF20A 55–510 (minimal motor domain construct used for crystallography) (mouse) (UniProt P97329)
KIF20A 55–565 (mouse) = KIF20A 55–565 (mouse) (UniProt P97329)
KIF20A 1–520 (mouse) = KIF20A 1–520 (mouse) (UniProt P97329)
KIF20A 25–520 (mouse) = KIF20A 25–520 (mouse) (UniProt P97329)

B1: KIF20A 1–565 (full-length functional motor domain) (domain or fragment, UniProt P97329 1-565)
chain: MSHRILSPPAGLLSDEDVVDSPILESTAADLRSVVRKDLLSDCSVISASLEDKQALLEDTSEKVKVYLRIRPFLTSELDRQEDQGCVCIENTETLVLQAPKDSFALKSNERGVGQATHKFTFSQIFGPEVGQVAFFNLTMKEMVKDVLKGQNWLIYTYGVTNSGKTYTIQGTSKDAGILPQSLALIFNSLQGQLHPTPDLKPLLSNEVIWLDSKQIRQEEMKKLSLLIGGLQEEELSTSVKKRVHTESRIGASNSFDSGVAGLSSTSQFTSSSQLDETSQLWAQPDTVPVSVPADIRFSVWISFFEIYNELLYDLLEPPSHQHKRQTLRLCEDQNGNPYVKDLNWIHVRDVEEAWKLLKVGRKNQSFASTHMNQQSSRSHSIFSIRILHLQGEGDIVPKISELSLCDLAGSERCKHQKSGERLKEAGNINTSLHTLGRCIAALRQNQQNRSKQNLIPFRDSKLTRVFQGFFTGRGRSCMIVNVNPCASTYDETLHAAKFSALASQLVHAPPVHLGIPSLHSFIKKHSPQVGPGLEKEDKADSDLEDSPEDEADVSVYGKEELLQV
Q: Which binding [1] does the source give for B1 here?
A: no binding (tested: 5 mg ml^-1)

B2: KIF20A 55–510 (minimal motor domain construct used for crystallography) (domain or fragment, UniProt P97329 55-510)
chain: ALLEDTSEKVKVYLRIRPFLTSELDRQEDQGCVCIENTETLVLQAPKDSFALKSNERGVGQATHKFTFSQIFGPEVGQVAFFNLTMKEMVKDVLKGQNWLIYTYGVTNSGKTYTIQGTSKDAGILPQSLALIFNSLQGQLHPTPDLKPLLSNEVIWLDSKQIRQEEMKKLSLLIGGLQEEELSTSVKKRVHTESRIGASNSFDSGVAGLSSTSQFTSSSQLDETSQLWAQPDTVPVSVPADIRFSVWISFFEIYNELLYDLLEPPSHQHKRQTLRLCEDQNGNPYVKDLNWIHVRDVEEAWKLLKVGRKNQSFASTHMNQQSSRSHSIFSIRILHLQGEGDIVPKISELSLCDLAGSERCKHQKSGERLKEAGNINTSLHTLGRCIAALRQNQQNRSKQNLIPFRDSKLTRVFQGFFTGRGRSCMIVNVNPCASTYDETLHAAKFSALASQLVHAP
Q: For B2, which binding [2] is on record?
A: no binding (tested: 5 mg ml^-1)

B3: KIF20A 55–565 (domain or fragment, UniProt P97329 55-565)
chain: ALLEDTSEKVKVYLRIRPFLTSELDRQEDQGCVCIENTETLVLQAPKDSFALKSNERGVGQATHKFTFSQIFGPEVGQVAFFNLTMKEMVKDVLKGQNWLIYTYGVTNSGKTYTIQGTSKDAGILPQSLALIFNSLQGQLHPTPDLKPLLSNEVIWLDSKQIRQEEMKKLSLLIGGLQEEELSTSVKKRVHTESRIGASNSFDSGVAGLSSTSQFTSSSQLDETSQLWAQPDTVPVSVPADIRFSVWISFFEIYNELLYDLLEPPSHQHKRQTLRLCEDQNGNPYVKDLNWIHVRDVEEAWKLLKVGRKNQSFASTHMNQQSSRSHSIFSIRILHLQGEGDIVPKISELSLCDLAGSERCKHQKSGERLKEAGNINTSLHTLGRCIAALRQNQQNRSKQNLIPFRDSKLTRVFQGFFTGRGRSCMIVNVNPCASTYDETLHAAKFSALASQLVHAPPVHLGIPSLHSFIKKHSPQVGPGLEKEDKADSDLEDSPEDEADVSVYGKEELLQV
Q: With B3 as the binder, how does the binding (KIF20A 55–565 (mouse)) read?
A: no binding (tested: 5 mg ml^-1)

B4: KIF20A 1–520 (domain or fragment, UniProt P97329 1-520)
chain: MSHRILSPPAGLLSDEDVVDSPILESTAADLRSVVRKDLLSDCSVISASLEDKQALLEDTSEKVKVYLRIRPFLTSELDRQEDQGCVCIENTETLVLQAPKDSFALKSNERGVGQATHKFTFSQIFGPEVGQVAFFNLTMKEMVKDVLKGQNWLIYTYGVTNSGKTYTIQGTSKDAGILPQSLALIFNSLQGQLHPTPDLKPLLSNEVIWLDSKQIRQEEMKKLSLLIGGLQEEELSTSVKKRVHTESRIGASNSFDSGVAGLSSTSQFTSSSQLDETSQLWAQPDTVPVSVPADIRFSVWISFFEIYNELLYDLLEPPSHQHKRQTLRLCEDQNGNPYVKDLNWIHVRDVEEAWKLLKVGRKNQSFASTHMNQQSSRSHSIFSIRILHLQGEGDIVPKISELSLCDLAGSERCKHQKSGERLKEAGNINTSLHTLGRCIAALRQNQQNRSKQNLIPFRDSKLTRVFQGFFTGRGRSCMIVNVNPCASTYDETLHAAKFSALASQLVHAPPVHLGIPSLH
Q: Which binding (KIF20A 1–520 (mouse)) does the source give for B4 here?
A: no binding (tested: 5 mg ml^-1)

B5: KIF20A 25–520 (domain or fragment, UniProt P97329 25-520)
chain: ESTAADLRSVVRKDLLSDCSVISASLEDKQALLEDTSEKVKVYLRIRPFLTSELDRQEDQGCVCIENTETLVLQAPKDSFALKSNERGVGQATHKFTFSQIFGPEVGQVAFFNLTMKEMVKDVLKGQNWLIYTYGVTNSGKTYTIQGTSKDAGILPQSLALIFNSLQGQLHPTPDLKPLLSNEVIWLDSKQIRQEEMKKLSLLIGGLQEEELSTSVKKRVHTESRIGASNSFDSGVAGLSSTSQFTSSSQLDETSQLWAQPDTVPVSVPADIRFSVWISFFEIYNELLYDLLEPPSHQHKRQTLRLCEDQNGNPYVKDLNWIHVRDVEEAWKLLKVGRKNQSFASTHMNQQSSRSHSIFSIRILHLQGEGDIVPKISELSLCDLAGSERCKHQKSGERLKEAGNINTSLHTLGRCIAALRQNQQNRSKQNLIPFRDSKLTRVFQGFFTGRGRSCMIVNVNPCASTYDETLHAAKFSALASQLVHAPPVHLGIPSLH
Q: Which binding (KIF20A 25–520 (mouse)) does the source give for B5 here?
A: no binding (tested: 5 mg ml^-1)

— PMC10508983, “Nucleotide-free structures of KIF20A illuminate atypical mechanochemistry in this kinesin-6” (Open Biology, 2023)
